# According to patent US11466011B2, “Compounds and their use as inhibitors of N-myristoyl transferase” (Imperial College Innovations Limited, priority 2015, dated 2022):
# Some results were stated once for a whole list of compounds, not compound by compound.
# Tested on: Plasmodium berghei, GFP ANKA 507 clone 1 strain
# Experiment: Mouse malaria model (c)
# Assay type: in vivo
# Details: twice-daily administration at 5 or 10 mg/kg/dose
smiles,measurement,value
Cc1nn(C)c(C)c1CCOc1cc(F)ccc1-c1ccc2[nH]nc(CN(C)C)c2c1 [Example 7],lowered the parasite burden in the mouse malaria model,more than 30%
